Results published in publication PMC9732823, “Discovery of Dual Aβ/Tau Inhibitors and Evaluation of Their Therapeutic Effect on a Drosophila Model of Alzheimer’s Disease” (ACS Chemical Neuroscience, 2022).

Conditions: PAMPA
Source text: Thus, to reduce attrition in the development process, the evaluation of BBB penetration at a very early drug discovery stage is of crucial importance. In light of this, the ability of the previously selected compounds to cross the BBB was predicted by a parallel artificial membrane permeability assay (PAMPA)-BBB,[41] a high-throughput technique widely used as an indicator of a molecule’s passive diffusion through the BBB. Six commercially available drugs were used to validate the assay.
PAMPA (the parallel artificial membrane permeability assay) is a high-throughput screening tool applicable for the prediction of the passive transport of potential drugs across the BBB.[41] […] The concentrations of the tested compound in both donor and the acceptor wells were assessed after 3, 4, 5, and 6 h of incubation in quadruplicate using a UV plate reader, Synergy HT (Biotek) at the maximum absorption wavelength of each compound (n=3). In addition to that, solution of the theoretical compound concentration, simulating the equilibrium state established if the membrane were ideally permeable, was prepared and assessed as well. The concentrations of the compounds in the donor and acceptor wells and the equilibrium concentration were calculated from the standard curve and expressed as the permeability (Pe) according to the equation[41] […]

## COc1cc2c(cc1OC)C(=O)C(CC1CCN(Cc3ccccc3)CC1)C2 (stereo not shown) [Donepezil, reference compound]
  CNS (+/-): CNS + (key: CNS + (high BBB permeation predicted): Pe (×10-6 cm s-1) > 4.0; CNS - (low BBB permeation predicted): Pe (×10-6 cm s-1) < 2.0; CNS +/- (uncertain BBB permeation): Pe (×10-6 cm s-1) from 4.0 to 2.0)
